Results as given in PubChem BioAssay AID504467 (National Center for Advancing Translational Sciences (NCATS), 2011).
Among all 330,000 compounds or so, about 7,700 (2.3%) were called active. This list was built around the results that the source calls inconclusive (neither active nor inactive); the mix of calls is not that of the screen. Calls follow the shape of the dose curve; as a rule, active = well fitted inhibition curve with a large enough effect; inconclusive = small, poorly fitted or top-dose-only effect, or effect the other way; inactive = flat fitted curve, though single readings scatter. Where the call is inconclusive, the potency comes from a doubtful curve fit.

assay: qHTS screen for small molecules that inhibit ELG1-dependent DNA repair in human embryonic kidney (HEK293T) cells expressing luciferase-tagged ELG1; conditions: HEK293T ELG1-luciferase reporter, luminescence, 16 h, DNA damage induced by 5-fluorouridine; activity change, negative = inhibition: at 46.1 µM (top of the series); also: nearly all actives have a fitted effect of over 55% in size
Procedure, shortened: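 Reporter activity after DNA damage by 5-fluorouridine is monitored. Compound-treated cells incubate 16 hr at 37 °C, then ONE-Glo is added for 30 min before luminescence reading.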
% is scaled to controls: 0 for no effect and ±100 for the full control effect; potency is read from the fitted curve at half-maximal effect.

| SMILES | Potency | activity change, negative = inhibition |
| --- | --- | --- |
| Cc1ccccc1NC1=C/C(=N\S(=O)(=O)c2ccc(C(=O)O)cc2)c2ccccc2C1=O | active: 11.6 µM | – |
| N=c1ccn2c(n1)O[C@H]1[C@@H](CO)[C@H](O)O[C@H]12 | – | inactive: 11.3% |
| CC(NC(=O)c1cc(F)c(F)c(F)c1F)c1ccc(-n2ccnc2)cc1 (stereo unspecified) | – | inactive: 4.72% |
| CC1CCCN(C(=O)c2cccc(S(=O)(=O)Nc3cc(C(F)(F)F)ccc3Cl)c2)C1 (stereo unspecified) | – | inactive: -10.4% |
| O=[N+]([O-])c1ccc(N/N=C\c2ccccc2OCc2ccccc2)cc1 | – | inactive: -1.83% |
| CCOC(=O)CSc1nc(N2CCOCC2)c2c(c1C#N)CC(C(C)C)OC2 (stereo unspecified) | – | inactive: -13.9% |
| CSc1ccccc1NC(=O)COc1ccccc1C | inconclusive: 16.4 µM [activator, single point] | – |
| NCCc1nnc(SCC(=O)c2ccc(Cl)cc2)o1 | inconclusive: 23.1 µM [activator, partial curve, poor fit] | – |
| CCOc1ccc(-c2cc(C(=O)N/N=C/c3cccnc3)c3ccccc3n2)cc1 | inconclusive: 13 µM [activator, partial curve] | – |
| COCCn1c(C)c(C)c2c(NCCc3ccccc3)ncnc21 | inconclusive: 0.366 µM [activator, full curve] | – |
| CC(C)(C)N(Cc1ccccc1)C(=O)c1cc2ccccc2o1 | inconclusive: 25.9 µM [inhibitor, single point] | – |
| Cn1c(=O)c2c(nc(N3CCOCC3)n2CC(=O)c2ccccc2)n(C)c1=O | inconclusive: 20.6 µM [inhibitor, single point] | – |
| O=C(NNc1nc2ccccc2s1)Nc1ccc(Cl)c(Cl)c1 | inconclusive: 18.3 µM [activator, partial curve, poor fit] | – |
| CC1CC(C)CN(C(=O)COC(=O)c2cc3ccccc3oc2=O)C1 (stereo unspecified) | inconclusive: 18.3 µM [activator, partial curve] | – |
| Cc1ccc(-c2csc3ncnc(OCC(=O)NC(=O)NCc4ccco4)c23)cc1 | inconclusive: 35.5 µM [inhibitor, partial curve, poor fit] | – |
| COc1ccc(CN(CC(=O)NCCC(C)C)C(=O)CCC(=O)Nc2nccs2)cc1 | inconclusive: 18.3 µM [inhibitor, single point] | – |
| COc1ccc(C)cc1NC(=O)CN1C(=O)C(=O)N(C2CCCC2)C1=O | inconclusive: 18.3 µM [activator, partial curve, poor fit] | – |
| Cc1ccc(C(=O)NCCCNC(=O)c2cccnc2)cc1 | inconclusive: 18.3 µM [activator, partial curve, poor fit] | – |
| NC(N)=Nc1nc(-c2ccccc2)c2cc(Cl)ccc2n1 | – | inactive: -0.933% |
| Cc1ccc(S(=O)(=O)N2CCC(C(=O)NNC(=O)c3ccccc3O)CC2)cc1C | – | inactive: -27% |
| Cc1c2cnn(CC(=O)NCc3ccccn3)c(=O)c2c(C)n1Cc1ccc(Cl)cc1 | – | inactive: -19.6% |
| Cc1ccccc1NC(=O)CCC(=O)N/N=C/c1cc([N+](=O)[O-])ccc1O | inconclusive: 8.2 µM [inhibitor, partial curve] | – |
| O=[N+]([O-])c1ccc(N=Nc2c(O)[nH]c3ccc(F)cc23)cc1 | inconclusive: 9.2 µM [activator, partial curve] | – |
| c1cncc(CSc2ccc(-c3cccnc3)nn2)c1 | inconclusive: 25.9 µM [activator, single point] | – |

Whole records, quoted from the list. Order of values: Potency	activity change, negative = inhibition
O=[N+]([O-])c1ccc(N=Nc2c(O)[nH]c3ccc(F)cc23)cc1 is listed as inconclusive: 9.2 µM [activator, partial curve]	–
Cc1ccccc1NC1=C/C(=N\S(=O)(=O)c2ccc(C(=O)O)cc2)c2ccccc2C1=O is listed as active: 11.6 µM	–
COc1ccc(CN(CC(=O)NCCC(C)C)C(=O)CCC(=O)Nc2nccs2)cc1 is listed as inconclusive: 18.3 µM [inhibitor, single point]	–
CC1CC(C)CN(C(=O)COC(=O)c2cc3ccccc3oc2=O)C1 (stereo unspecified) is listed as inconclusive: 18.3 µM [activator, partial curve]	–

More results

| SMILES | Potency | activity change, negative = inhibition |
| --- | --- | --- |
| Cc1ccc(N2C(=O)Nc3ccccc3C2(O)C(=O)N2CCN(c3ccccn3)CC2)cc1C (stereo unspecified) | inconclusive: 10.3 µM [activator, partial curve] | – |
| Cc1ccc(NC(=O)C(C)c2ccc(-c3ccccc3)c(F)c2)c(C)c1 (stereo unspecified) | inconclusive: 20.6 µM [inhibitor, single point] | – |
| Cc1ccccc1NC(=O)N1CCCC(c2nc(-c3ccc(F)cc3)no2)C1 (stereo unspecified) | inconclusive: 29.1 µM [inhibitor, single point] | – |
| COc1ccc(CNC(=O)COC(=O)C2CC3C=CC2C3)cc1 (stereo unspecified) | – | inactive: 5.95% |
| O=C(NCCN1CCCC1)c1ccc2c(c1)N(Cc1cccc(Cl)c1)C(=O)c1ccccc1S2(=O)=O | inconclusive: 16.4 µM [activator, single point] | – |
| Cn1c(C(=O)NCCCN2CCCC2=O)cc2c(=O)n(C)c3ccccc3c21 | inconclusive: 23.1 µM [activator, partial curve, poor fit] | – |
| COc1ccc(-c2nc(CS(=O)CC(=O)NC3CCCc4ccccc43)c(C)o2)cc1OC (stereo unspecified) | inconclusive: 23.1 µM [inhibitor, single point] | – |
| CCN1CCN(c2ccc(NC(=O)c3ccc(Br)o3)cc2)CC1 | inconclusive: 20.6 µM [activator, partial curve] | – |
| Cc1ccsc1C(=O)NNC(=O)Nc1ccc(Cl)c(Cl)c1 | inconclusive: 20.6 µM [activator, single point] | – |
| O=C(CSc1nnc(Cn2nnc(-c3ccccc3)n2)n1-c1ccccc1)Nc1ccc(F)cc1 | – | inactive: 0.538% |
| CN(CC(=O)NCCc1ccc(S(N)(=O)=O)cc1)Cc1c(F)cccc1Cl | – | inactive: -4.96% |
| Brc1c(OCCOCCn2cncn2)ccc2ccccc12 | inconclusive: 18.4 µM [activator, single point] | – |
| O=C(NCc1nnc2c3ccccc3c(-c3ccccc3)nn12)c1ccc(Cl)cc1 | inconclusive: 29.1 µM [inhibitor, partial curve, poor fit] | – |
| O=C(NC1CCCCC1)C1c2ccccc2C(=O)N1Cc1ccc2c(c1)OCO2 (stereo unspecified) | – | inactive: -8.14% |
| Cc1c(C(=O)NCc2ccccc2)oc2ccc(S(=O)(=O)N3CCCC3)cc12 | active: 14.6 µM | – |
| O=C(COC(=O)c1ccccc1NC(=O)c1ccccc1)c1ccc([N+](=O)[O-])cc1 | – | inactive: 28.6% |
| O=[N+]([O-])c1ccc2c(c1)C(N1CCOCC1)/C(=C/COc1ccc(F)cc1)O2 (stereo unspecified) | inconclusive: 16.4 µM [inhibitor, single point] | – |
| O=C(c1ccco1)N1CCN(c2ccc(N3CCCCC3)nn2)CC1 | inconclusive: 16.4 µM [activator, partial curve] | – |
| COc1ccc(S(=O)(=O)NNC(N)=S)cc1 | – | inactive: 10.9% |
| Cc1cc(-n2cnc3c(=O)[nH]cnc32)ccc1N | inconclusive: 16.4 µM [activator, partial curve, poor fit] | – |
| Cc1c(C(=O)N2CCOCC2)c(S(=O)(=O)Nc2ccccc2)c(C)n1C | – | inactive: 13.1% |
| COc1ccccc1CCC(=O)OCC(=O)c1c(N)n(CC(C)C)c(=O)n(C)c1=O | inconclusive: 9.2 µM [inhibitor, partial curve] | – |
| O=C(O)c1cc(O)ccc1NC(=O)C(c1ccccc1)c1ccccc1 | – | inactive: -10.7% |
| CNc1ccc(Br)cc(C(=O)/C=C/c2ccc(OC)cc2)c1=O | inconclusive: 32.6 µM [inhibitor, single point] | – |

| SMILES | Potency | activity change, negative = inhibition |
| --- | --- | --- |
| COc1ccc(NS(=O)(=O)c2ccc(Oc3ncccn3)cc2)cc1 | inconclusive: 14.6 µM [inhibitor, partial curve] | – |
| CC[C@]12c3[nH]c4ccccc4c3CCN1C(=O)C(CC(=O)NC/C=C(\C)CCC=C(C)C)C[C@@H]2C(=O)N1CCN(C(=O)C2CC2)CC1 (stereo partly specified) | – | inactive: -19.6% |
| Nc1nc(Nc2ccccc2)nc(C(F)(F)F)n1 | inconclusive: 14.6 µM [activator, partial curve, poor fit] | – |
| COC(=O)c1ccc(N2C(=O)Nc3ccccc3N2O)cc1 | – | inactive: 3.86% |
| CCOC(=O)c1cnc(Nc2ccccc2)nc1C(F)(F)F | inconclusive: 18.3 µM [activator, partial curve] | – |
| C/C(=N\Nc1ncc(Br)cn1)c1cccc([N+](=O)[O-])c1 | – | inactive: 1.86% |
| CC(C)(C)C(=O)NC(NC(=S)Nc1sc2c(c1C#N)CCCC2)C(Cl)(Cl)Cl (stereo unspecified) | – | inactive: -3.52% |
| O=C(NCCS(=O)(=O)N1CCN(c2ccccc2F)CC1)c1ccc(Br)cc1 | – | inactive: 8.27% |
| CCn1c2ccccc2c2cc(CN3CCN(S(=O)(=O)Cc4ccccc4)CC3)ccc21 | – | inactive: -19.4% |
| CCCCn1nc(C(=O)NCC2COc3ccccc3O2)c2ccccc2c1=O (stereo unspecified) | inconclusive: 29.1 µM [inhibitor, single point] | – |
| Cc1ccc(Nc2nc(N)c([N+](=O)[O-])c(N3CCOCC3)n2)cc1C | active: 13 µM | – |
| C/C=C/c1ccc(OCCCCn2cncn2)c(OC)c1 | inconclusive: 29.1 µM [activator, single point] | – |
| CCO[C@@H]1OC(C(=O)N2CCN(Cc3ccc4c(c3)OCO4)CC2)=C[C@H](c2csc3ccccc23)[C@H]1CCCO | – | inactive: -12.6% |
| Cc1ccc(S(=O)(=O)CC(O)COc2ccc(F)cc2Cl)cc1 (stereo unspecified) | – | inactive: 6.45% |
| CSc1nnc(NC(=O)C2CCCCC2)s1 | inconclusive: 18.4 µM [activator, partial curve] | – |
| COc1ccc(-c2nnc(SCC(=O)Nc3nncs3)o2)cc1 | inconclusive: 18.3 µM [activator, single point] | – |
| CCC(=O)N/N=C(\C)CC(=O)Nc1ccc2c(c1)OCCO2 | inconclusive: 20.6 µM [inhibitor, single point] | – |
| O=C1CSc2ccc(C(=O)N3CCN(c4ccccn4)CC3)cc2N1 | inconclusive: 8.2 µM [inhibitor, partial curve] | – |
| Cc1ccc(Cn2c(C)nc3ccc([N+](=O)[O-])cc3c2=O)cc1 | inconclusive: 29.1 µM [inhibitor, single point] | – |
| CCCN(CC(=O)Nc1ccccc1C)C(=O)/C=C/c1ccc(OCC)c(OC)c1 | – | inactive: -8.11% |
| CC(C)(C)n1ncc2c(=O)n(CC(=O)N3CCc4ccccc43)cnc21 | inconclusive: 14.6 µM [activator, partial curve] | – |
| C/C(CC(=O)Nc1ccc(C)c(Cl)c1)=N\NC(=O)c1cccc(O)c1 | – | inactive: 4.9% |
| CCOc1ncccc1C(=O)Nc1cc2c(cc1Br)OCCO2 | – | inactive: -29.6% |
